The whole screen tested about 31,000 sequences, of which about 1,400 (4.5%) were called active.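 Rule for the calls: active = median seed-adjusted z-score above 1 or below -1; inactive = the rest.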 Some of the results follow.
Assay: Novel Modifiers of Survival Motor Neuron (SMN) Protein: Gene Identification via Genome-wide siRNA Screen;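 note: luminescence tracks full-length SMN protein made from the SMN2 reporter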
Settings: HEK293T SMN2-luciferase reporter, siRNA knockdown, 72 h; actives lie on both sides
Method in brief: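 Steps: spot 1 pmol siRNA, add Lipofectamine RNAiMax in serum-free DMEM, seed HEK293T SMN2–luciferase reporter cells; incubate 72 h at 37 °C; add ONE-Glo; normalize luminescence to control siRNA, log10, MAD. Candidates: |MAD| > 1.0.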

Sequence | median seed-adjusted z-score
CCAUAGCUGAUGUUAUUCUTT against NDUFS1 | inactive: -0.217
GGCACAAUUUCAACUCCAUTT against GPR35 | active: -1.46
CACCAGUCAUCCAACUUGATT against RANBP9 | inactive: -0.467
CUGUUGCACUUCACAUUUUTT against TRIP13 | active: 1
GAAGGAUCACUCUCAGAUATT against LRRC47 | inactive: 0.00856
AGAUCAUCGAGACAGAUUUTT against SLC39A3 | inactive: 0.0298
GGACGUGCUUCAUUAACAATT against ALDH9A1 | inactive: -0.297
CGAAUACAGGCAAGCUGUATT against RASL11A | inactive: -0.294
GGCAAAACAUUAUUGGGCATT against FIGN | inactive: -0.2
GCCUUUUAACAAACCCAUATT against FUT6 | inactive: 0.282
GAGAAGGCUUUGACGAAAATT against PKD2L2 | inactive: -0.0723
GGAGGUUUGUAGAAUAUGUTT against XYLT1 | inactive: -0.274
CUGUGGUGAUUGCAUCAAATT against SLC20A1 | inactive: -0.186
CCUGGAACAUCAUGAGGUATT against ADCY10 | inactive: -0.573
CCUUCGACCAUAAUCCAGATT against KATNAL2 | inactive: -0.85
UCCCAGGACACAUCACAUATT against RRAS | inactive: -0.102
GCAGAGCGGAAGUAAGGAUTT against AFMID | inactive: -0.515
CAGGCGAUCUUUGCGCAGATT against ONECUT2 | inactive: -0.696
CCGAAGAAGCAAUAUCGAATT against CRKRS | active: -1.16
CGUGGAGGCCUAUAUCGAUTT against GTPBP3 | inactive: -0.197
AGAUGUACAACUCACCAUATT against SLC25A28 | inactive: -0.459
AGCACAUCUCGGUCCUCCATT against MAPK8IP2 | inactive: 0.284
CGGCAAAAAGGUAGUCUAATT against ZNF32 | inactive: 0.034

Sequence | median seed-adjusted z-score
CGAUAAGAAUAGCAGGGAATT against SF4 | inactive: 0.498
AGAACUCGGUGAUGAAAUATT against S1PR5 | inactive: 0.301
CAAAGACCCUUUAUUCGAATT against BTBD10 | inactive: 0.695
GGUAGACAAUAUUACUACATT against ARHGAP12 | inactive: 0.525
CCAUGAGCAUAACAAGAUUTT against ZBTB47 | inactive: 0
CCAAGAACCCGGAGAAGUATT against EXOC7 | inactive: -0.231
CAGGAUCUGUUCAACCAAATT against VWA2 | inactive: 0.584
GAAAUGACAGUGAAUAGUATT against STX19 | inactive: 0.143
CACUCUAAUUUUAAGACCATT against CALR3 | inactive: -0.0828
CACAUUUAAUGGAAACCGATT against AJAP1 | inactive: 0.488
CAUCAUCCCUUAGUCUACATT against WNK1 | inactive: -0.121
GGUCCAUUUUCUUCGCAAUTT against DDX55 | inactive: 0.507
GCUCAAUCCUUUCCCUUCATT against PROM2 | inactive: 0.188
GAAACUUGAUGGCUCCGAATT against OXT | inactive: 0.553
CCUGAGCUGUGCAACCAAUTT against SLC12A8 | inactive: 0.113
CGAGUUUGCUUGGUCAGAATT against SF3B1 | active: -3.65
UUAUCGCAAGUGAUAUUUATT against ZXDB | inactive: 0.186
GCACCAUUCGAAGCUCAGATT against SLC9A1 | inactive: 0
GCUCCAUCCUUAUUCAACATT against ZIK1 | inactive: -0.0627
GACCCAGUCUGAGUGUCUGTT against ZNF655 | inactive: -0.156
CCGACCAUCGAAGACUUUUTT against RAP2B | inactive: -0.22
CGGUAGCUGCUGACUCUAUTT against AKAP6 | inactive: -0.0978
GCACGGUCACUGUUAGAUATT against FLNB | inactive: 0.243

Sequence | median seed-adjusted z-score
GAAGUGACGUGGACCUGGATT against ELF3 | inactive: 0.43
GCAGAACUGUAUCAAGGAATT against NDUFB10 | inactive: -0.39
GCAGUGUGACGGUAGCUUUTT against ZNF79 | inactive: -0.351
AACCAAUGUUGGACAACUATT against ZNF99 | inactive: 0.0778
GGCAGUGGUUUUGACAACATT against CTBP1 | inactive: 0.105
CGAUGUCUACGGCUUCUCATT against PEF1 | inactive: 0.651
CUACUAGCAUAUCCACAAATT against POLR3B | inactive: -0.151
CACCUACAUCACCUAUUAATT against PPP1R12A | inactive: -0.103
GGAGCUAUUUGACAGCGAATT against PPP2R5E | inactive: 0.421
GGCAUCUACUUGUGAGUAATT against NUP155 | inactive: 0.141
GCACGCGGCUAUACAAUCATT against SLC25A34 | inactive: -0.256
GAGACUGACUGUUAGCACATT against LPAR1 | inactive: 0.514
CGAUACCAGCUGUCGGUUUTT against LONRF1 | inactive: 0.743
GCAAGAUCCUCAUCGUGGATT against HDAC4 | inactive: -0.0988
GCAUCAACGUGUGUGGACUTT against WFIKKN1 | inactive: 0
GUCUUAUGGUGCAAACUUUTT against NDUFS4 | inactive: 0.336
CAAGUACUCAGAGACGGAUTT against SCD5 | inactive: -0.167
GGGCCUUUCUUGGACUGAUTT against PHF7 | inactive: 0.425
GCUCCAACAUGGUCUACAATT against POLE | active: -1.55
GGACUACACCUACUGGGUATT against PTPRH | inactive: 0.175
CAAUCUAACUUUUCGGACATT against CLCA2 | inactive: 0.669
GAACCUUCGGGAGAACCUUTT against FKBPL | active: -1.11

Random excerpt: four entries already listed.
Sequence | median seed-adjusted z-score
GUCUUAUGGUGCAAACUUUTT against NDUFS4 | inactive: 0.336
CGAUGUCUACGGCUUCUCATT against PEF1 | inactive: 0.651
GGCAUCUACUUGUGAGUAATT against NUP155 | inactive: 0.141
CACCUACAUCACCUAUUAATT against PPP1R12A | inactive: -0.103
